In general, AC50 refers to the midpoint of the concentration-response curve, whichever way the signal moves.

A short description of this test: IkB Signaling. To be noted: ABC-DLBCL IkBa-CBG/CBR dual luciferase ratio (green luciferase fused to IkBa over red control in OCI-Ly3 lymphoma cells), 4 h. The procedure, abridged: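 Luminescence ratio of IκBα-fused green versus native red beetle luciferase in OCI-Ly3 cells, 4 h post-doxycycline with compound; red signal alone, scaled from basal (0%) to zero light (-100%), flagged nonspecific or cytotoxic effects.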
[1] abbreviates: measured here: control luc red channel unless noted.

The list shows a part of the results. Shown are side measurements of this screen, not its main read-out; they come without a call. The list favours compounds with an active or inconclusive main result. Potencies come from curve fits of mixed quality, noted in brackets.

Take `COc1ccc(Nc2cc(C(=O)NCCCN(C)Cc3ccccc3)c3ccccc3n2)cc1OC`: the concentration at half-maximal activity (AC50) under setting [1] is 20 µM [falling, partial curve].
As for `Cc1nc2nc(COc3ccccc3)[nH]n2c(=O)c1Cl`, under setting [1], the AC50 was 0.251 µM [falling, full curve].
In the case of `COc1cccc(COC(=O)c2nn(-c3ccccc3)nc2N)c1`, the half-maximal activity concentration (AC50) under setting [1] is 31.6 µM [falling, partial curve].
Regarding `COc1ccc(NC(=O)NCc2cccn2C)c(OC)c1`, the half-maximal activity concentration (AC50) under setting [1] was 12.6 µM [falling, partial curve].
In the case of `CCc1ccc(NC(=O)N2CC=C(c3c[nH]c4ccccc34)CC2)cc1`, the AC50 under setting [1] is 2.51 µM [falling, partial curve].
Consider `CCN(CC)c1ccc(NC(=O)CCS(=O)(=O)c2cccc3nsnc23)c(C)c1`, for which, under setting [1], the AC50 was 25.1 µM [falling, single point].
Turning to `COc1ccc(C(=O)NCC(c2cccnc2)N2CCc3ccccc3C2)cc1` (configuration not stated), under setting [1], the AC50 is 39.8 µM [falling, single point].
Take `CCN(CC)c1ccc(C2CC(=O)Nc3cc(OC)c(OC)cc32)cc1` (configuration not stated): under setting [1], the AC50 was 20 µM [falling, partial curve].
With `Cc1cccc(NC(c2cccc(Cl)c2)c2ccc3cccnc3c2O)n1` (configuration not stated), the AC50 under setting [1] was 7.94 µM [falling, partial curve].
The same measure, in the same setting: in the case of `COc1cc(NC(=O)Nc2nnc(N3CCCCC3)s2)cc(OC)c1` it was 6.31 µM [falling, partial curve].
On the same count and under the same terms, in the case of `O=c1c2[nH]c3ccccc3c2nc(SCc2ccccc2F)n1-c1ccc(F)cc1` it was 39.8 µM [falling, single point].
With `Cc1ccc(CNC(=O)c2ccc3oc(=O)n(Cc4ccccc4)c3c2)cc1`, under setting [1], the half-maximal activity concentration (AC50) was 31.6 µM [falling, single point].
On the same count and under the same terms, in the case of `COc1ccc(Cl)cc1NC(=O)C1CCCN(S(=O)(=O)c2ccc3c(c2)CCCC(=O)N3)C1` (configuration not stated) it was 15.8 µM [falling, partial curve]; in that of `O=C(CSc1nc2c(c(=O)[nH]1)CN(Cc1ccc3c(c1)OCO3)CC2)Nc1cc(F)ccc1F`, 7.94 µM [falling, full curve].
`c1ccc2[nH]c(CN3CCN(c4ncnc5c4oc4ccccc45)CC3)nc2c1`: under setting [1], the concentration at half-maximal activity (AC50) is 31.6 µM [falling, single point].
For `COc1ccc(-c2c3c(=O)n(C)c(=O)n(C)c3c3n2-c2ccccc2NC3c2ccccc2OC)cc1` (configuration not stated), the AC50 under setting [1] is 3.98 µM [falling, full curve].
For `COc1ccc2sc(NC(=O)CC(C)C)nc2c1`, under setting [1], the AC50 is 10 µM [falling, partial curve].
Still for that read-out and setting: the figure for `CCCCSCCCNC(=O)c1cn(CC)c2ccc(S(=O)(=O)N3CCOCC3)cc2c1=O` is 20 µM [falling, single point].
As for `COc1ccc(S(=O)(=O)N2CCC(C(=O)Nc3ccc(Oc4ccccc4)cc3)CC2)cc1OC`, under setting [1], the half-maximal activity concentration (AC50) was 7.94 µM [falling, partial curve].
Turning to `COc1ccc(C(CNC(=O)COc2cc(C)c(Cl)c(C)c2)N2CCCCC2)cc1` (configuration not stated), under setting [1], the half-maximal activity concentration (AC50) is 1.58 µM [falling, partial curve].
`O=C(Nc1nsc(-c2ccccc2)n1)c1ccncc1`: the AC50 under setting [1] is 20 µM [falling, single point].
With `O=C(CSc1nc(=O)n(Cc2ccncc2)c2c1CCC2)Nc1ccccc1`, under setting [1], the AC50 was 39.8 µM [falling, single point].
With `COc1cccc(CNC(=O)CCc2c(C)c3cc4c(C)coc4cc3oc2=O)c1`, the AC50 under setting [1] was 25.1 µM [falling, partial curve].
Regarding `CCCN(CCC)C(=O)c1c[nH]c2ccc(S(=O)(=O)N(C)c3ccc(Cl)cc3)cc2c1=O`, the AC50 under setting [1] was 12.6 µM [falling, partial curve].
Turning to `CCCCOC(=O)c1ccc(NC(=O)C2(c3cccs3)CCOCC2)cc1`, the AC50 under setting [1] is 20 µM [falling, partial curve, poor fit].
Consider `COc1ccc(NC(=O)CSc2nc(-c3ccccc3)cc(-c3cc(OC)c(OC)c(OC)c3)c2C#N)c(OC)c1`, for which, under setting [1], the AC50 was 5.01 µM [falling, full curve].
Turning to `COc1ccccc1-c1cc(C(=O)Nc2c(C)nn(Cc3ccc(Cl)cc3)c2C)no1`, under setting [1], the half-maximal activity concentration (AC50) was 3.98 µM [falling, full curve].
Take `O=C(NCc1ccco1)c1cc2ccc(O)cc2oc1=O`: the AC50 under setting [1] is 12.6 µM [falling, partial curve].
Consider `CCCCN(CCCNC(=O)c1cc(Nc2ccc(OC)cc2OC)nc2ccccc12)Cc1ccccc1`, for which the AC50 under setting [1] is 15.8 µM [falling, partial curve].
Regarding `Cc1nc2ccccc2c2oc(C(=O)N3CCc4ccccc4C3)cc12`, the AC50 was 10 µM [falling, partial curve] (measured here: IkB-luc green channel) and 7.94 µM [falling, partial curve] (measured here: control luc red channel).
Take `COc1ccccc1N1CCN(S(=O)(=O)CCNC(=O)c2cc(=O)c3ccccc3o2)CC1`: the AC50 under setting [1] is 10 µM [falling, partial curve].
On to `COc1ccc(C(=O)c2cn(Cc3ccc(F)cc3)c3c(F)cc(F)cc3c2=O)cc1`, for which, under setting [1], the AC50 is 39.8 µM [falling, single point].
Take `O=C(C1COc2cc(S(=O)(=O)Nc3ccc(Cl)cc3)ccc2O1)N1CCCC1` (configuration not stated): the AC50 under setting [1] is 5.01 µM [falling, single point].
As for `COc1cccc(C2C(C#N)=C(N)OC3=C2C(=O)CC(c2ccco2)C3)c1OCc1ccc(F)cc1` (configuration not stated), the AC50 under setting [1] is 5.01 µM [falling, partial curve].
Take `COc1ccccc1N1CCN(C(=O)CSc2nc(C)c(Cc3ccccc3)c(=O)[nH]2)CC1`: the AC50 under setting [1] is 25.1 µM [falling, partial curve].
On to `CCc1ccccc1N(C)C(=O)c1cc2c(s1)-c1c(C)cccc1OC2`, for which the AC50 under setting [1] is 1.58 µM [falling, full curve].
`COc1ccc(CCNc2nc(-c3sc(N)nc3C)cs2)cc1OC`: under setting [1], the AC50 was 15.8 µM [falling, partial curve].
Still for that read-out and setting: the figure for `COc1cc(C2C(C(=O)Nc3ccccc3)=C(C)Nc3nc(SCC(=O)c4ccc(C)cc4)nn32)ccc1O` (configuration not stated) is 0.0631 µM [falling, full curve, poor fit]; for `O=C(CSc1nnnn1-c1ccc2c(c1)CCC2)Nc1ccc2c(c1)OCCO2` it is 15.8 µM [falling, partial curve].
Take `CC(C)NS(=O)(=O)c1ccc(OCC(=O)N2CCN(c3cccc(Cl)c3)CC2)cc1`: the AC50 under setting [1] is 39.8 µM [falling, single point].
In the case of `CCc1ccc(S(=O)(=O)c2nnn3c2nc(N2CCN(CC)CC2)c2sccc23)cc1`, under setting [1], the AC50 was 39.8 µM [falling, single point].
On the same count and under the same terms, in the case of `CCOC(=O)c1ccc(N2C(=O)c3n[nH]c(-c4ccco4)c3C2c2cccc(F)c2)cc1` (configuration not stated) it was 20 µM [falling, partial curve]; in that of `CCC(=O)N1CCc2cc(S(=O)(=O)NC(Cc3ccccc3)C(=O)Nc3ccc(Cl)cc3)ccc21` (configuration not stated), 3.16 µM [falling, full curve].
As to `O=C(CSc1nc(-c2ccccc2)[nH]c1-c1ccc(F)cc1)NC1CCCC1`, under setting [1], the AC50 was 15.8 µM [falling, partial curve].
As for `COc1ccc(CCNC(=O)c2cc3cccc4c3n2CC(C)S4)c(OC)c1OC` (configuration not stated), under setting [1], the half-maximal activity concentration (AC50) was 15.8 µM [falling, partial curve].
For the compound `CCCC(=O)Nc1c(C(=O)N2CCN(c3ccccc3)CC2)oc2ccccc12`, under setting [1], the AC50 is 15.8 µM [falling, partial curve].
With `CCc1ccccc1NC(=O)C1=CC(c2ccc3c(c2)OCO3)=NS(=O)(=O)N1C`, under setting [1], the AC50 is 39.8 µM [falling, single point].
As for `COc1ccccc1C(=O)CC1(O)C(=O)N(CC(N)=O)c2ccccc21` (configuration not stated), under setting [1], the half-maximal activity concentration (AC50) is 7.94 µM [rising, partial curve, poor fit].
As for `CC(C)(C)c1ccc(C(=O)Nc2ccc3nc(SCC(=O)N4CCCC4)sc3c2)cc1`, the AC50 under setting [1] was 3.98 µM [falling, full curve].
The same measure, in the same setting: in the case of `O=C(CN1C(=O)COc2ccc(S(=O)(=O)N3CCCCCC3)cc21)N1CCN(c2cccc(Cl)c2)CC1` it was 12.6 µM [falling, partial curve]; in that of `O=C(CSc1nnc(Cn2c(=O)sc3ccccc32)n1-c1ccccc1)Nc1nccs1`, 10 µM [falling, partial curve]; in that of `Cc1cccc(N2CCN(C(=O)CCNS(=O)(=O)c3ccc4c(c3)CCN4C(=O)C3CC3)CC2C)c1` (configuration not stated), 39.8 µM [falling, partial curve].
For `Cc1cccc(C(=O)Nc2nc3c(s2)CCCC3)c1`, under setting [1], the half-maximal activity concentration (AC50) is 3.16 µM [falling, partial curve].
As to `c1ccc(CNc2ncnc3[nH]ncc23)cc1`, the AC50 under setting [1] was 3.16 µM [rising, single point].
In the case of `CSc1ccc(CCNC(=O)c2ccc3c(c2)nc2n3CCC(C)C2)cc1` (configuration not stated), under setting [1], the AC50 is 2.51 µM [falling, partial curve, poor fit].
In the case of `Cc1c2c(n3c(nc4ccccc43)c1C#N)N(Cc1ccccn1)CC2`, the half-maximal activity concentration (AC50) under setting [1] was 12.6 µM [falling, partial curve].
Same read-out and setting: the figure for `CCOCCc1nn2c(=O)cc(COC(=O)c3ccccc3NC(=O)c3cccs3)nc2s1` is 1.26 µM [rising, full curve, poor fit].
Still for that read-out and setting: in the case of `COc1ccc(N2CCN(C(=O)c3c(C)nn(-c4ccc(F)cc4)c3-n3cccc3)CC2)cc1` it was 12.6 µM [falling, partial curve]; in that of `O=C(C1CCCN(S(=O)(=O)c2cccs2)C1)N1CCN(c2ccccc2F)CC1` (configuration not stated), 25.1 µM [falling, partial curve]; in that of `Cc1ccc(CN(Cc2cccn2-c2nnc(N3CCCC3=O)s2)C(=O)Nc2cc(C)cc(C)c2)cc1`, 12.6 µM [falling, partial curve, poor fit].
As for `COc1ccc(-c2nc3c(c(SCC(=O)Nc4cc(C)cc(C)c4)n2)Cc2c(CO)cnc(C)c2O3)cc1`, the half-maximal activity concentration (AC50) under setting [1] was 0.158 µM [rising, full curve, poor fit].

(Values after PubChem BioAssay AID445 (National Center for Advancing Translational Sciences (NCATS), 2006).)
